The campaign covered roughly 53,000 sequences. About 3,700 (7%) were called active.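 How the source made its calls: active means gene knockdowns whose robust z-score for IL-1 alpha signal is at least 2 or at most -2, so actives lie on both sides; inactive means the rest.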 Some of the results follow.

For 107 sequences, z-score results are on record in PubChem BioAssay AID1508600 (Functional Genomics Laboratory (NCATS/FGL), 2020).

The nature of this experiment: Components of the Cytosolic LPS Sensing Pathway: Gene Identification via Genome-wide siRNA Screen.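 Further: robust z of the log signal after scaling to non-targeting control siRNA wells of the plate.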 The following applies: RAW264.7 macrophages, IL-1a HTRF, actives lie on both sides, screened at 100 nM (by protocol), cells primed 5 h with Pam3CSK4 first. A digest of the protocol:
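Mouse macrophage line RAW264.7 is transfected with siRNA (100 nM final), grown 48h, primed with TLR ligand Pam3CSK4 5 h and given intracellular LipidA 24 h. IL-1a in supernatant is read by HTRF and viability by luminescence.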
For orientation: TR-FRET usually uses a lanthanide donor and a delayed reading to cut background.
With GCUAUGAUCAUAGUACGAUTT against Adam25, the z-score is inactive: 0.25. The result for GGACUUCACAAUCUCUUUCTT against Hck reads inactive: -0.11. On to GGAUGAUCAUUCUAGCUGUTT against Hormad1, for which the z-score was inactive: 0.836.

For the sequence CCUGGUGCUUCGUAAUUACTT against Cyp11a1, the z-score is inactive: -1.03.

Regarding GGGAUUCAGAGAUCAUGCATT against Serf1, the z-score is inactive: -0.504.

On to CCUGGAGAGUGAUACGUUCTT against Serpina1f, for which the z-score is inactive: -0.228.

GGACUUUCUGGACUCCCGATT against Wnt10a: the z-score is inactive: -0.368. To GGAAUUAAAGAGGAACUCCTT against Adamts20 belongs inactive: 0.172; to GGCCUUUACAUGUCCCAGCTT against BC002059, inactive: 0.456; to GGAAGAACUUUAAAAAUGCTT against Cd99l2, inactive: 1.37. The result for GGGUGUGCAUCUUGUUUUCTT against Olfr1312 reads inactive: -1.05; that for GGCAGAGAUGGAGUUGGUCTT against Azin2, inactive: -0.0183; that for GGAAGUGCCCAUGAAUCCUTT against Irf6, inactive: -0.433.

On to GGAAAUAUAGUAAAGCAGATT against Cdca7l, for which the z-score was inactive: -1.13. To CCAGAUGACAAUGAGUCAGTT against Ss18 belongs inactive: -0.197; to GGAAUGGUUUUAUUUUUGGTT against Noa1, inactive: -0.0245; to GGAAAUUUACUAGGAGAACTT against Carf, inactive: -1.15.

GGGUGGUACUAAACUCCAUTT against Sirpa: the z-score was inactive: -0.861. As for GGAUUCGGAAUACUACGAUTT against Abo, the z-score was inactive: 1.62. To GGCAAAUGAGAAACAGCAATT against Cxcl16 belongs active: -2.23; to GGCUGAGACGGAAUCUUUATT against Bfsp2, inactive: -1.17. To GGAGUCGUUUAAGCUUUAATT against Zfhx3 belongs inactive: 0.963; to GGGUACUGCUUCAACCAACTT against P2rx3, inactive: 0.308. Take GGACACAAAUGACAUCAACTT against Sirpa: the z-score was active: 2.13.

For GGACUUCGUGUUCAUACAUTT against Tmie, the z-score was inactive: 0.548. To GGAGAGGGAUCAUAGAAAATT against Hey2 belongs inactive: 0.0862; to GGAAUGUGGUUUCCUGUUATT against Fscn3, inactive: 0.502. To AACUUUCCUGCUCUAACACTT against Olfr930 belongs inactive: -1.27; to UUCCAGAAAAGAAGUGCACTT against Defb41, inactive: 0.356; to “GGUCUUGGACCUCAGGAAGTT against 3110040N11Rik”, inactive: 0.644. The result for AAUGCAAACAAUGCAAAUGTT against Mt2 reads inactive: -0.174.

For GGAAGUCGCCUACAUCCUUTT against Lenep, the z-score is inactive: 0.643. The result for CGCAUUAGAGAGAUGAACATT against Acap2 reads inactive: -0.566.

On to GGCCAAAAGGUUGAGCAGUTT against Nsun2, for which the z-score was inactive: 0.311. As for CCUUCGUAGCCUGUAUCAUTT against Myadm, the z-score is inactive: -0.173. The result for CCCAACUUUGGGCUUGUCUTT against Cluap1 reads inactive: 0.37; that for GCUCAUGUCCUAUAUUCAATT against Scfd2, inactive: 0.244. The result for GGGCAUUGAGACUUUGCUGTT against Sit1 reads inactive: 0.692; that for CCUGGUCACAGGCAUUAAATT against Lkaaear1, inactive: 0.248. To GGACUUUGUGCAUUUGUUATT against Ly75 belongs inactive: 0.693; to GGGCAUGAGAAAUCCACAGTT against Rhox9, inactive: -1.23. Turning to GGCUUCGGAUAUGGCUACATT against Krtap19-4, the z-score is inactive: 0.0557.

For the sequence GGCAUCCCACUGAAGAACATT against Cmas, the z-score is inactive: -0.0744. The result for GGCGAAGCUUGAAGAACAUTT against Ipo5 reads inactive: 0.273; that for “GGAGGAGGUUCAUAUUAAATT against A330041J22Rik”, inactive: 0.0777; that for GGAGAACAUCACUGAUCCATT against Grin1, inactive: 0.125. To GGAUAACAAAAGUAUCCAGTT against Ikbke belongs inactive: 0.793. The result for GCAACAAGUUUGAUACCGATT against Chic1 reads inactive: 0.0162; that for GGGUUUCUGACCCUUGGUUTT against Vmn1r220, inactive: -1.42; that for GGAUGAAAUUAACUCUGAATT against Parp1, inactive: -0.533.

On to CGUAGGAGAACAAACAUCCTT against Tmc7, for which the z-score was inactive: -0.158.

Consider GGAAGUCCACAAAUGAAGGTT against Ric1, for which the z-score was inactive: 1.77. To GGGAAACCAUCGAUUUGAATT against Bmp5 belongs inactive: -1.35. The result for GGAAGUUCCACCAUACCUCTT against Cypt4 reads active: -2.5; that for GGUAAAAUAUGGUCUCUUCTT against Clrn3, inactive: -0.282. The result for GGAGAUCCUAAUCAUGUCATT against Kcmf1 reads inactive: 0.612.

Regarding GGGAGAGGAAGAAAAUAAATT against Ccz1, the z-score was inactive: 0.476. To GGAAUACCAUGUUACAAUUTT against Reln belongs inactive: 0.816; to GGCAUUCAGGAAGUUACUGTT against Krt75, inactive: -1.63. To GCCAAUACACGUCUACUGATT against Gm1553 belongs inactive: -0.0632. The result for GGUCAAUUGUCCAUAUGACTT against Tox3 reads active: -2.24; that for GCAUAUACUCCAAAAGUCATT against Cldn8, inactive: -0.634.

For the sequence “GGUACACCCAGACAAGAACTT against 4930503B20Rik”, the z-score is inactive: -0.397. To GGAGAAAUAGAUUCAGUGATT against Cep170 belongs inactive: -0.839; to GGAAUGUUCCGAUUAUUUATT against Slc9b1, inactive: 1.03. GGGAGACCUGCUACUAUUGTT against Gtf3c2: the z-score is active: 2.58.

Regarding GCUGGCUGUUUCACUACAGTT against Tdh, the z-score was active: 3.19. In the case of GGGACUUACAGAUUACAGUTT against Izumo1, the z-score was inactive: 0.416. The result for GGGAGGAACAAGUUGGACCTT against Npl reads inactive: -0.841; that for GGUCUUACGUAAACCUGCCTT against Olfr959, inactive: -1.54. To CCACUGGCUACCACAUGUUTT against Cyb5d2 belongs inactive: -0.0983. The result for GGGAGUCUGUAGAAGGUUCTT against Samd14 reads inactive: 0.577. In the case of GCUAAGUGGAGUUUAUGCUTT against Agpat5, the z-score was inactive: 0.0451. On to GCAUAAGAAGAAACACCUUTT against Usp17lf, for which the z-score was inactive: 1.42. The result for GGCUUUAAAGGGAAUGCCCTT against Uba3 reads inactive: -0.886; that for GGUUAUUCUGGUACAGGUUTT against Fndc3a, inactive: 0.191. Turning to CGGUGGUCACUGUGAAAUGTT against Nr1h5, the z-score was inactive: 0.0152. In the case of GCCUUUUAGGACAGACUCUTT against AU040320, the z-score was inactive: -0.75. The result for GGAUCCAAGCAUUAUAGUGTT against Smg5 reads inactive: 0.908. To CCAUAAAUGAGUCUUCAUUTT against Bnip5 belongs inactive: -0.0535. The result for CCACUUUUAGCUAGAAGGATT against Gdf2 reads inactive: 0.0775; that for GGUGUUCCAUAUUCUGGACTT against Pvalb, inactive: 0.886. GGGCUCCUGGUUUAGUAAUTT against Zfp59: the z-score was inactive: 1.04. Consider GCAGCCAUACAGCUUAUAUTT against Cyb561d2, for which the z-score was inactive: 0.382.

With GGCAGAAACGUGGACUAAATT against Mmp12, the z-score is inactive: -1.29. With GGUCCUGAAGAACCUGUACTT against Myrip, the z-score is inactive: -0.0103. The result for GGACAUCAGUUAUCACGCATT against Sh3rf2 reads inactive: -0.404. The result for UUCAAAUAAACUCUCUGCUTT against Krtap31-2 reads inactive: 0.802; that for CCUCACUGUGGUAACAUUATT against Olfr452, inactive: 1.84; that for GGAAUUCACAGAAAUAAUGTT against Hmgcs2, inactive: 0.101. The result for GUAUCGUUUGAGCAGAUCCTT against Cib1 reads inactive: -0.669; that for GGAUAUCCGUGAGAUUUCATT against Timm9, active: 3.7. Turning to CCCUAGUGAUAAGGAAUGCTT against Cxcl9, the z-score is inactive: 0.228. Regarding CCAAAUCGUCGCCAUUAAGTT against Cdk7, the z-score is inactive: -0.445.

With GGUAUUAGCAAUUUUCUGGTT against Olfr619, the z-score was inactive: -0.681.

With CUCGUUAAUCCUGUGAUAUTT against Olfr740, the z-score was inactive: 1.74. As for GCCAACCUCUGUGUGUAUUTT against Olfr1263, the z-score was inactive: 0.799. Consider GGUUCACCUACCCAACAAUTT against Mrgpra4, for which the z-score is inactive: -1.89. The result for GCAGGUUUACCAGUUUUUCTT against Prickle3 reads inactive: 1.88. Turning to GCAAGAGAAAUCCACGACUTT against Ncoa1, the z-score is inactive: -0.0778. As for CCUGAUAGAAAAUCUCGACTT against Pld1, the z-score is inactive: -0.537. On to GGAUCUCUAUGCUAACAACTT against Acta2, for which the z-score was inactive: 1.83.

Take GGAAGAGGAAGAAAAAAAGTT against Iqcf4: the z-score was inactive: -0.411. To CCUGUAACCUUGCUUAAUGTT against Hoxc6 belongs inactive: 0.0208.

On to GCACCUAGAUUGAUUGCAGTT against Olfr1186, for which the z-score was inactive: -1.79. The result for GGAAGGUAUGGUACGAUGUTT against Rock1 reads inactive: -0.455; that for GGAAGGCUAUACACACCUUTT against Crisp1, inactive: 1.13.
